The target in test [1] is histamine N-methyltransferase (human (endogenous in H441)) (UniProt P50135). As to the kind of experiment: co-IP; reciprocal immunoprecipitation with HNMT or HER2 antibodies from H441 cell lysate, endogenous proteins; non-denaturing lysis buffer (20 mM Tris HCl pH 8, 137 mM NaCl, 1% Nonidet P-40, 2 mM EDTA); SDS-PAGE/immunoblotting. A general note: A western blot detects proteins with antibodies after separation by electrophoresis.

Chains of the proteins cited; added tags and fusions are not shown.
UniProt P50135: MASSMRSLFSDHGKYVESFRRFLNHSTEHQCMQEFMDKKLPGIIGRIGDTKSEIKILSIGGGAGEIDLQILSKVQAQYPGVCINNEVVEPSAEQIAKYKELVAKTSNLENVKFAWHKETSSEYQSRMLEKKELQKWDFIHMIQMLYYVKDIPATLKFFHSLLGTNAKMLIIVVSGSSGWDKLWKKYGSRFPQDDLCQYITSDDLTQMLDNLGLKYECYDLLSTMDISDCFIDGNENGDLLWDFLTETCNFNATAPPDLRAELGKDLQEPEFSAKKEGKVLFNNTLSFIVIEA

Test [2] deals with human epidermal growth factor receptor 2 (human (endogenous in H441)) (UniProt P04626). Described as above.

These are yes or no findings as the source states them, for the method shown. Binding seen in cells or lysates may run through a third protein. Some results given as binding are weak or reduced against the parent protein; the word gives no strength.

With “human epidermal growth factor receptor 2 (from UniProt P04626 23-1255)”, the binding entry in test [1] is “binds”. With “histamine N-methyltransferase (from UniProt P50135 1-292) (enzyme)”, in test [2], the binding entry is given as “binds”.

The values above are taken from publication PMC8835856.
